Source: paper PMC10627786
No constants are given. Whether binding was seen depends on the method and setting. In cells and extracts the contact can be indirect. A yes stands for co-enrichment or nearness to the bait. Other partners may have been found. Where a sequence is shown, tags or fusion partners need not be part of it.

T1: ESYT1-3xFLAG (human) (UniProt Q9BSJ8)
T1 sequence: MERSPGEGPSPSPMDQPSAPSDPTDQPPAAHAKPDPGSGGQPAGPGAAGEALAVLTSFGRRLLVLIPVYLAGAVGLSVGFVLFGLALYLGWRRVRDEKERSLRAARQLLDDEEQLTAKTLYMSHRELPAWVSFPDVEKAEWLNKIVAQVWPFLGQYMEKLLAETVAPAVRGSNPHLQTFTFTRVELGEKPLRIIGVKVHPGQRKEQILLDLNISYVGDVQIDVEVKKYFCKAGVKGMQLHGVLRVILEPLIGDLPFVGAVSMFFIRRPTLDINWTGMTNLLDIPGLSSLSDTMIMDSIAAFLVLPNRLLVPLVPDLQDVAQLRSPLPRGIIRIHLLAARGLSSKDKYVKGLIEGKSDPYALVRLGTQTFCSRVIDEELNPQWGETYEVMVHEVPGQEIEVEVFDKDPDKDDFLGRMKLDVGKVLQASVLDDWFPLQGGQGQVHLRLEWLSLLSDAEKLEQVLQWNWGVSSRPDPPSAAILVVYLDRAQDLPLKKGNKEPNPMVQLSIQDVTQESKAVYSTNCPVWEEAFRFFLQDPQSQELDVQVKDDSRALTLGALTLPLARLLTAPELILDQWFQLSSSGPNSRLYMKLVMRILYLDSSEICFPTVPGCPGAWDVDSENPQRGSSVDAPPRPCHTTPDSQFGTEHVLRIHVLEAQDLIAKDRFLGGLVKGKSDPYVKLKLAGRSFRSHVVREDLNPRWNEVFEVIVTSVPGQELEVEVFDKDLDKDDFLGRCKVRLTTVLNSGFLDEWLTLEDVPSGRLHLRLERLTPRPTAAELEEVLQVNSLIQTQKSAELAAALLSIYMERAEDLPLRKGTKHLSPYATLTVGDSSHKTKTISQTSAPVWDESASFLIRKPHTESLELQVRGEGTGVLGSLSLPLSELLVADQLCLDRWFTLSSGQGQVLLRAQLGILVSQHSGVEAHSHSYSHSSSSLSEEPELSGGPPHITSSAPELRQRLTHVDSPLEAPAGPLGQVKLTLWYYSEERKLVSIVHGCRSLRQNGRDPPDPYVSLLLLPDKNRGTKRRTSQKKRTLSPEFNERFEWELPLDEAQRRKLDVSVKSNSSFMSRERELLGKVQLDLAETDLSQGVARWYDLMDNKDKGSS

T2: PDZD8 fused with BirA*-FLAG (BioID bait) (human) (UniProt Q8NEN9)
T2 sequence: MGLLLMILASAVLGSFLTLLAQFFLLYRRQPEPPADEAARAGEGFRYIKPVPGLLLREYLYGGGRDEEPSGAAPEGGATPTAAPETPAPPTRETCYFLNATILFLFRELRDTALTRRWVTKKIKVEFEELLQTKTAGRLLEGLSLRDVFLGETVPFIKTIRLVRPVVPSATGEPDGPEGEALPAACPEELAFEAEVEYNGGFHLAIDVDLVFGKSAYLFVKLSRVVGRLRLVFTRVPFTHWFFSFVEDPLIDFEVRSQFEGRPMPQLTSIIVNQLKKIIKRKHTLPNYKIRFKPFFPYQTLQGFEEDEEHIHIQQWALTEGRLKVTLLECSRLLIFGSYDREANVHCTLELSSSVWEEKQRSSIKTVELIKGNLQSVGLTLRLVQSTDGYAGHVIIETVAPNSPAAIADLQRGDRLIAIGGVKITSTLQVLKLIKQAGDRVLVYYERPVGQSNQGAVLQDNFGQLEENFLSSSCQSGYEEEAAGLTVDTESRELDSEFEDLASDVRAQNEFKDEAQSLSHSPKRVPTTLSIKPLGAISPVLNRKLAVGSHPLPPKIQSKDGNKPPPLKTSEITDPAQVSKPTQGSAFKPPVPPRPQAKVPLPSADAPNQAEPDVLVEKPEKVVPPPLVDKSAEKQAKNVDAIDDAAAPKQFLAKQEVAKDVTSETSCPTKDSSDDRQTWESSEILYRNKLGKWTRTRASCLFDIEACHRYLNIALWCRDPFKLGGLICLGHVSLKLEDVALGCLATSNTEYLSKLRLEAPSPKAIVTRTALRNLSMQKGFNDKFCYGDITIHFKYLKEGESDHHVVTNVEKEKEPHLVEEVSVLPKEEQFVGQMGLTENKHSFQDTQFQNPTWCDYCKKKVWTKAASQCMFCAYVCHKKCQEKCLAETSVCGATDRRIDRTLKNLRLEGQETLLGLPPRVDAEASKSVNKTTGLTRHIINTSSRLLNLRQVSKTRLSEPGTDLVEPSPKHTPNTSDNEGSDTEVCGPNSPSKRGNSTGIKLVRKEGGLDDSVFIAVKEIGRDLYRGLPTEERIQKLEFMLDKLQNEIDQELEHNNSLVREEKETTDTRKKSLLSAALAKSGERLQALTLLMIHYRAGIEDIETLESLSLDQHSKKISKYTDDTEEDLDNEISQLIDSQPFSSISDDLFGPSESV

T3: ESYT1 fused with BirA*-FLAG (BioID bait) (human) (UniProt Q9BSJ8)
T3 sequence: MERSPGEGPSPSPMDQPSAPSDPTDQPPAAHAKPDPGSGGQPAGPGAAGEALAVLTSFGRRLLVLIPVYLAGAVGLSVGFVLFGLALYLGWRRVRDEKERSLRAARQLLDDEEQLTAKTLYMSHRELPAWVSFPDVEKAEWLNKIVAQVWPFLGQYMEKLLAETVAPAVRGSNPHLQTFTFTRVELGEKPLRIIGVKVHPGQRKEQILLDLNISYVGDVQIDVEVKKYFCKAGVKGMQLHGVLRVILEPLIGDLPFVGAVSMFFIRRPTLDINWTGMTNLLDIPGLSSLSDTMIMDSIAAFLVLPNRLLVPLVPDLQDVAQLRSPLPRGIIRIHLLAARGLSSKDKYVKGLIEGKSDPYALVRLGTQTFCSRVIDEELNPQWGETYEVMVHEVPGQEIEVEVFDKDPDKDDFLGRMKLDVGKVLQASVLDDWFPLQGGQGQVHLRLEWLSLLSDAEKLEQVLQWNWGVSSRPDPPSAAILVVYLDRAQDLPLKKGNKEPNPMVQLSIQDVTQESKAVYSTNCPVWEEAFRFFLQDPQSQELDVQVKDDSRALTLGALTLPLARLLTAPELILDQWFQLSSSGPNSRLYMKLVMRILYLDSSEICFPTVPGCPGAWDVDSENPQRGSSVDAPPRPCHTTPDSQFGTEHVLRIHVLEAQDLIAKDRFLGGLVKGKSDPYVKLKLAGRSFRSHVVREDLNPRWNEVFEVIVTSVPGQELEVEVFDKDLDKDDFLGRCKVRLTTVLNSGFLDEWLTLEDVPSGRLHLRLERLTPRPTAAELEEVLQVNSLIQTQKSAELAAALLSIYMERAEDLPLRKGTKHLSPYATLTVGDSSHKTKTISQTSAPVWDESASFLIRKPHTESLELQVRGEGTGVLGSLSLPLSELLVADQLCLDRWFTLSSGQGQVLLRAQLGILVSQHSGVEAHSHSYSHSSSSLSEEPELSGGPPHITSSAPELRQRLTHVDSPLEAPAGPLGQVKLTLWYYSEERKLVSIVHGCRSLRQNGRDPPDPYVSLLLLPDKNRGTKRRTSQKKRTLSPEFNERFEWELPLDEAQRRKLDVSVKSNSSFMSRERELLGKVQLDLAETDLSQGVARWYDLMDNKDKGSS


How the values were obtained:
ESYT1-3xFLAG (human) = biological target: T1, ESYT1-3xFLAG (human); experiment: affinity purification with mass spectrometry; heavy membrane fraction of human fibroblasts overexpressing ESYT1-Flag lysed in 10 mM Tris pH 7.5, 150 mM NaCl, 1% DDM; Flag antibody cross-linked to Dynabeads Protein A, overnight at 4°C; washes up to 450 mM NaCl; naked beads as negative control; Orbitrap LC-MS
[1] = biological target: T2, PDZD8 fused with BirA*-FLAG (BioID bait) (human); experiment: proximity labelling; BioID in stable inducible Flp-In T-REx 293 cells expressing BirA*-FLAG baits; mass spectrometry of biotinylated preys; SAINTexpress, two biological replicates per bait, 50 negative control runs, BFDR threshold 1%
[2] = biological target: T3, ESYT1 fused with BirA*-FLAG (BioID bait) (human); experiment: as above

binding (ESYT1-3xFLAG (human)) | Binder | also measured
binds | ESYT2 (endogenous in human fibroblasts) (protein, UniProt A0FGR8 1-921) MTANRDAALSSHRHPGCAQRPRTPTFASSSQRRSAFGFDDGNFPGLGERSHAPGSRLGARRRAKTARGLRGHRQRGAGAGLSRPGSARAPSPPRPGGPENPGGVLSVELPGLLAQLARSFALLLPVYALGYLGLSFSWVLLALALLAWCRRSRGLKALRLCRALALLEDEERVVRLGVRACDLPAWVHFPDTERAEWLNKTVKHMWPFICQFIEKLFRETIEPAVRGANTHLSTFSFTKVDVGQQPLRINGVKVYTENVDKRQIILDLQISFVGNCEIDLEIKRYFCRAGVKSIQIHGTMRVILEPLIGDMPLVGALSIFFLRKPLLEINWTGLTNLLDVPGLNGLSDTIILDIISNYLVLPNRITVPLVSEVQIAQLRFPVPKGVLRIHFIEAQDLQGKDTYLKGLVKGKSDPYGIIRVGNQIFQSRVIKENLSPKWNEVYEALVYEHPGQELEIELFDEDPDKDDFLGSLMIDLIEVEKERLLDEWFTLDEVPKGKLHLRLEWLTLMPNASNLDKVLTDIKADKDQANDGLSSALLILYLDSARNLPSGKKISSNPNPVVQMSVGHKAQESKIRYKTNEPVWEENFTFFIHNPKRQDLEVEVRDEQHQCSLGNLKVPLSQLLTSEDMTVSQRFQLSNSGPNSTIKMKIALRVLHLEKRERPPDHQHSAQVKRPSVSKEGRKTSIKSHMSGSPGPGGSNTAPSTPVIGGSDKPGMEEKAQPPEAGPQGLHDLGRSSSSLLASPGHISVKEPTPSIASDISLPIATQELRQRLRQLENGTTLGQSPLGQIQLTIRHSSQRNKLIVVVHACRNLIAFSEDGSDPYVRMYLLPDKRRSGRRKTHVSKKTLNPVFDQSFDFSVSLPEVQRRTLDVAVKNSGGFLSKDKGLLGKVLVALASEELAKGWTQWYDLTEDGTRPQAMT | 
 | ZFYVE27 (Protrudin) (protein, UniProt Q5T4F4 1-411) MQTSEREGSGPELSPSVMPEAPLESPPFPTKSPAFDLFNLVLSYKRLEIYLEPLKDAGDGVRYLLRWQMPLCSLLTCLGLNVLFLTLNEGAWYSVGALMISVPALLGYLQEVCRARLPDSELMRRKYHSVRQEDLQRGRLSRPEAVAEVKSFLIQLEAFLSRLCCTCEAAYRVLHWENPVVSSQFYGALLGTVCMLYLLPLCWVLTLLNSTLFLGNVEFFRVVSEYRASLQQRMNPKQEEHAFESPPPPDVGGKDGLMDSTPALTPTEDLTPGSVEEAEEAEPDEEFKDAIEETHLVVLEDDEGAPCPAEDELALQDNGFLSKNEVLRSKVSRLTERLRKRYPTNNFGNCTGCSATFSVLKKRRSCSNCGNSFCSRCCSFKVPKSSMGATAPEAQRETVFVCASCNQTLSK | binding [1]: binds
 | OSBPL8 (protein, UniProt Q9BZF1 1-889) MEGGLADGEPDRTSLLGDSKDVLGPSTVVANSDESQLLTPGKMSQRQGKEAYPTPTKDLHQPSLSPASPHSQGFERGKEDISQNKDESSLSMSKSKSESKLYNGSEKDSSTSSKLTKKESLKVQKKNYREEKKRATKELLSTITDPSVIVMADWLKIRGTLKSWTKLWCVLKPGVLLIYKTQKNGQWVGTVLLNACEIIERPSKKDGFCFKLFHPLEQSIWAVKGPKGEAVGSITQPLPSSYLIIRATSESDGRCWMDALELALKCSSLLKRTMIREGKEHDLSVSSDSTHVTFYGLLRANNLHSGDNFQLNDSEIERQHFKDQDMYSDKSDKENDQEHDESDNEVMGKSEESDTDTSERQDDSYIEPEPVEPLKETTYTEQSHEELGEAGEASQTETVSEENKSLIWTLLKQVRPGMDLSKVVLPTFILEPRSFLDKLSDYYYHADFLSEAALEENPYFRLKKVVKWYLSGFYKKPKGLKKPYNPILGETFRCLWIHPRTNSKTFYIAEQVSHHPPISAFYVSNRKDGFCLSGSILAKSKFYGNSLSAILEGEARLTFLNRGEDYVMTMPYAHCKGILYGTMTLELGGTVNITCQKTGYSAILEFKLKPFLGSSDCVNQISGKLKLGKEVLATLEGHWDSEVFITDKKTDNSEVFWNPTPDIKQWRLIRHTVKFEEQGDFESEKLWQRVTRAINAKDQTEATQEKYVLEEAQRQAARDRKTKNEEWSCKLFELDPLTGEWHYKFADTRPWDPLNDMIQFEKDGVIQTKVKHRTPMVSVPKMKHKPTRQQKKVAKGYSSPEPDIQDSSGSEAQSVKPSTRRKKGIELGDIQSSIESIKQTQEEIKRNIMALRNHLVSSTPATDYFLQQKDYFIIFLLILLQVIINFMFK | binding [2]: binds
binds | SYNJ2BP (endogenous in human fibroblasts) (protein, UniProt P57105 1-145) MNGRVDYLVTEEEINLTRGPSGLGFNIVGGTDQQYVSNDSGIYVSRIKENGAAALDGRLQEGDKILSVNGQDLKNLLHQDAVDLFRNAGYAVSLRVQHRLQVQNGPIGHRGEGDPSGIPIFMVLVPVFALTMVAAWAFMRYRQQL | 
